Laboratory results: article PMC6572767
These are yes or no findings as the source states them, for the method shown. For some assays here: In cells and extracts the contact can be indirect. Some results given as binding are weak or reduced against the parent protein; the word gives no strength. For some assays here: Sequences can lack the tags named with a protein. Blank lines part the entries; values can stand above or below the molecule they belong to.

Chains of the proteins cited; added tags and fusions are not shown. Residues count along the entry.
UniProt P21802, residues 22-377: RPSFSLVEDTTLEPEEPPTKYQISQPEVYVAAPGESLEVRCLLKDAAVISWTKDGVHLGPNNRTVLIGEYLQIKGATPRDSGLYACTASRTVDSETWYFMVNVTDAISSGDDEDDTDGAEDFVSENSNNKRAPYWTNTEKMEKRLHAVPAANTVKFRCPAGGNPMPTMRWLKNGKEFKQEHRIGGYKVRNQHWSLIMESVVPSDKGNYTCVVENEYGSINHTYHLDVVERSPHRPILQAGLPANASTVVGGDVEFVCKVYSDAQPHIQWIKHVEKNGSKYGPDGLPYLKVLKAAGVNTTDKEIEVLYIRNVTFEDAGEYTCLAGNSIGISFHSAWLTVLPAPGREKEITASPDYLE
UniProt P22607, residues 23-375: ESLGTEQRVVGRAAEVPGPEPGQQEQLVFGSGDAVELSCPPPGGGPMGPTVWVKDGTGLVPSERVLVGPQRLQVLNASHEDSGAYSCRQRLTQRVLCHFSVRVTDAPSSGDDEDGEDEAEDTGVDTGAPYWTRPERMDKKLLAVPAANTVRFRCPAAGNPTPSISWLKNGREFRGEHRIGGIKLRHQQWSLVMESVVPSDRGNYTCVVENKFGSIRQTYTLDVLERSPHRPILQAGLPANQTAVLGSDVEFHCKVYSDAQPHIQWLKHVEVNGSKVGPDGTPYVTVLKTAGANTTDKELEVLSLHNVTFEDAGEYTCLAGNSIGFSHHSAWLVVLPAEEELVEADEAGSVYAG
UniProt P11362, residues 22-822: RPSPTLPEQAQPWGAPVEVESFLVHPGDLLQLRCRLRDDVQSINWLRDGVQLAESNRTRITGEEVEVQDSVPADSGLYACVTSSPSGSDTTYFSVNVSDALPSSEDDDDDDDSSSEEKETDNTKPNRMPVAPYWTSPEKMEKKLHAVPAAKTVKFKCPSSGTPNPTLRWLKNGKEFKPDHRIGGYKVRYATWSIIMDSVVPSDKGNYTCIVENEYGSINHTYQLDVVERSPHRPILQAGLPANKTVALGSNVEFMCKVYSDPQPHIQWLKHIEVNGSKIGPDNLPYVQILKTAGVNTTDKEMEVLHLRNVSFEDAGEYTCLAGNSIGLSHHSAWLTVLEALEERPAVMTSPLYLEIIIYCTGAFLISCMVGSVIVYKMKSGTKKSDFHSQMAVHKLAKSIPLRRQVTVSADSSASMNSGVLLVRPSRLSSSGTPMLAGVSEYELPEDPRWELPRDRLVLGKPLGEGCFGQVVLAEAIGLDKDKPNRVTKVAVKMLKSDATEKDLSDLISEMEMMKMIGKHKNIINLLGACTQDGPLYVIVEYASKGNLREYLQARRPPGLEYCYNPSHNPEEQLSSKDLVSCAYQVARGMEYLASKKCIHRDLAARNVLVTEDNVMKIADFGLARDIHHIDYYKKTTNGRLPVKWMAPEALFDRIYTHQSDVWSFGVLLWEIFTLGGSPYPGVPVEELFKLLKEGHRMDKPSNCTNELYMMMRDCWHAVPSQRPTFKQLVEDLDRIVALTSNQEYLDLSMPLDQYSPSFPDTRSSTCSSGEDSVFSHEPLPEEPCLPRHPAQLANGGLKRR
UniProt P09382: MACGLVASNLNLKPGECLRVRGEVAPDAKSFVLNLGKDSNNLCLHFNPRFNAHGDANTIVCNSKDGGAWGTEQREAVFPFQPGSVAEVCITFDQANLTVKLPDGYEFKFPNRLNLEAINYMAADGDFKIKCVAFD
UniProt P16092, residues 22-822: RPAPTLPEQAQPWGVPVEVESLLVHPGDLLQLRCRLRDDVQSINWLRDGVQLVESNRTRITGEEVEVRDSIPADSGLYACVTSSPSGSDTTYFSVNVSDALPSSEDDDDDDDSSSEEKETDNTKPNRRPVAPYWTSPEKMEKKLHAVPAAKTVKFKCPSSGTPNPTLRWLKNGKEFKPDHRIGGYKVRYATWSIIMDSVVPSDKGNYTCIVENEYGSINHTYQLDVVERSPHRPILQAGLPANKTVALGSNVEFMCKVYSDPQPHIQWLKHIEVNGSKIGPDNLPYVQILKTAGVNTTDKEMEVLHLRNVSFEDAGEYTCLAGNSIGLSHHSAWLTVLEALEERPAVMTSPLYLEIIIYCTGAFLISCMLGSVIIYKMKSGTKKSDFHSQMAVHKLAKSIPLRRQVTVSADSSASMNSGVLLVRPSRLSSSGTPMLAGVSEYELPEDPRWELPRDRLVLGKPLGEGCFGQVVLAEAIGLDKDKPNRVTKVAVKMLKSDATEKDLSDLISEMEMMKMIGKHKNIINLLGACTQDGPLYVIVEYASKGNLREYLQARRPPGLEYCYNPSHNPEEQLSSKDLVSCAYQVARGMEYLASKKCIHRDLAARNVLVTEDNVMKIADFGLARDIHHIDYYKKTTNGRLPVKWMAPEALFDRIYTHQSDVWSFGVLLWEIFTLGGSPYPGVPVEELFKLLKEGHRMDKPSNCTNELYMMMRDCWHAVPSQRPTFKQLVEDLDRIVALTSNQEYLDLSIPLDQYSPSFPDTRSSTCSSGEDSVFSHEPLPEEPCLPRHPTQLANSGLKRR
UniProt P17931: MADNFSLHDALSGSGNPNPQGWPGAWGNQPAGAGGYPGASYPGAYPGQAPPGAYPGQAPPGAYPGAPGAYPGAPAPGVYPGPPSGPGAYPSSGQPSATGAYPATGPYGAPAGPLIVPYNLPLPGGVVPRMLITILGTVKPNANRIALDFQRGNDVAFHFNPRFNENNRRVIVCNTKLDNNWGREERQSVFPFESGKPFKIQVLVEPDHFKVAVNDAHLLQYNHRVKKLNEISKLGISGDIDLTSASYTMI
UniProt P10809, residues 27-573: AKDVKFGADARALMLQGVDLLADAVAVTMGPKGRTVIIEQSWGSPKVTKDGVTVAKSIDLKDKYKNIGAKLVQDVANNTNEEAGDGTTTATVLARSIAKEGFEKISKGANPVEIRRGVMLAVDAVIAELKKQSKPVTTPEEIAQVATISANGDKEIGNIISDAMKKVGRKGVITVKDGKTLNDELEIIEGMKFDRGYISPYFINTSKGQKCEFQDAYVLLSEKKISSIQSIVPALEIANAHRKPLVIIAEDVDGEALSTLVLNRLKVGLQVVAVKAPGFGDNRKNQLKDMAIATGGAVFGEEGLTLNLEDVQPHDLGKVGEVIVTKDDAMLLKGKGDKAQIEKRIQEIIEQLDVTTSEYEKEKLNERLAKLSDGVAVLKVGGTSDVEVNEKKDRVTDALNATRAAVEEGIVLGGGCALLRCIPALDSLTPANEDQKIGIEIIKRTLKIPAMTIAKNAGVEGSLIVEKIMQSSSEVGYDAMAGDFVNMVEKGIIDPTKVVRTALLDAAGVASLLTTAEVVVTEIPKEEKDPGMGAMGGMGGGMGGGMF
UniProt Q15418: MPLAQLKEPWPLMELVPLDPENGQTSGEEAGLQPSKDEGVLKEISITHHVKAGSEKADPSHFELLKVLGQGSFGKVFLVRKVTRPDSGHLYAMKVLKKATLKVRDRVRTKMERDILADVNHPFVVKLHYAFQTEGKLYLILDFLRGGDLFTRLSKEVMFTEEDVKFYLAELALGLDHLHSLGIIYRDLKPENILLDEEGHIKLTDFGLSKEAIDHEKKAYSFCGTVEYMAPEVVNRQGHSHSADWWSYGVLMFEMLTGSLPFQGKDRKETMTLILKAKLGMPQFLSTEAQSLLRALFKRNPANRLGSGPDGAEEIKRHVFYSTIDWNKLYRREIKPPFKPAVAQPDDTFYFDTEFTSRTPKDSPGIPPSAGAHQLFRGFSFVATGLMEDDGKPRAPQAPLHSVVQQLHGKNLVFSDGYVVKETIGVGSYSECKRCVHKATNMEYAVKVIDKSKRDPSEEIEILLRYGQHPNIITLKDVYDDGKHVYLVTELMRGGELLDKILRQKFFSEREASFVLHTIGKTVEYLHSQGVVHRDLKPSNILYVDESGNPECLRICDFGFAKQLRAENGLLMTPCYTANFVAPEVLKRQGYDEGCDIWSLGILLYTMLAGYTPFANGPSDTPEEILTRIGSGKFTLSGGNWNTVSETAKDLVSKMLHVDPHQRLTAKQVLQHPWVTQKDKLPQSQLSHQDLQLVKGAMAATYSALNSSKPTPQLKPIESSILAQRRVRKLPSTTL
UniProt P16045: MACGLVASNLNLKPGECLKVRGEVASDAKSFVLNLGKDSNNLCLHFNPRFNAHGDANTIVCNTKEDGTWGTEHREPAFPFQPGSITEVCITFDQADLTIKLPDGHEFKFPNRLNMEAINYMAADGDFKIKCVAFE
UniProt P16110: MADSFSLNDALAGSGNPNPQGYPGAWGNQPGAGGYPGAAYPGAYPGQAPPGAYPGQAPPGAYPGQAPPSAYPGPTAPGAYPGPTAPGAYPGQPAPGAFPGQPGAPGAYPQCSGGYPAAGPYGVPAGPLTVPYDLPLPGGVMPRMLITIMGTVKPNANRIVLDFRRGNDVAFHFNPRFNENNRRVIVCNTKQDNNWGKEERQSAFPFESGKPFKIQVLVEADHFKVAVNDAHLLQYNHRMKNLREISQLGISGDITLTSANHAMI

Assays:
[1] = molecular target: full-length extracellular portion of FGFR2 (IIIc) fused to Fc (UniProt P21802); experiment: BLI; Octet RED K2; FGFR1ecd-Fc to FGFR4ecd-Fc (10 μg/ml) immobilised on AR2G or Protein-A sensors, galectin-1 or galectin-3 10–30 μg/ml; for binding constants 2.8 μM to 11.4 μM galectin, heterogeneous ligand (2:1) model; empty reference sensor subtracted; both purified
[2] = molecular target: full-length extracellular portion of FGFR3 (IIIc) fused to Fc (UniProt P22607); experiment: as above
[3] = molecular target: T1, full-length extracellular portion of FGFR4 fused to Fc (UniProt P22455); experiment: as above
T1 sequence: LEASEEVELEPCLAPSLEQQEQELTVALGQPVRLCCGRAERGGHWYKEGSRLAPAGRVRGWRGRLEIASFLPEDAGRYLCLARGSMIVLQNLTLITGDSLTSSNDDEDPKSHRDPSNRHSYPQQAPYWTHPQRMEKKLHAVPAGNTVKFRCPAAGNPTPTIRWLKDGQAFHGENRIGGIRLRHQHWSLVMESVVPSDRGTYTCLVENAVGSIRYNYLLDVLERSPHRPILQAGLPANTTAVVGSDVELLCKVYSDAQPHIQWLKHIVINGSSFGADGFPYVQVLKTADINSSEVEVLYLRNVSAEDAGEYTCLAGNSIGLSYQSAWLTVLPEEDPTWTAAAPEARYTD

[4] = molecular target: streptavidin-binding peptide (SBP)-tagged FGFR1 (UniProt P11362); experiment: pull-down; Streptavidin-Agarose pull down of SBP-FGFR1 from U2OS-SBP-R1 lysate (control U2OS-R1), 3 h at 4 °C; western blotting
[5] = molecular target: streptavidin-binding peptide (SBP)-tagged FGFR1 (UniProt P11362); experiment: pull-down; U2OS-SBP-R1 cells treated with FGF1 (50 ng/ml) and heparin (10 U/ml) or not, fractionated into membrane, cytosolic and nuclear fractions; co-purification with SBP-FGFR1; western blotting
[6] = molecular target: recombinant galectin-1 (His-Tag fusion) (UniProt P09382); experiment: pull-down; His-tagged galectin-1 or galectin-3 (10 μg) bound to Ni-NTA agarose in 50 mM Tris, 150 mM NaCl, pH 7.4; U2OS-R1 lysate, 2 h at 4 °C; western blotting; only the target purified
[7] = molecular target: endogenous FGFR1 (NIH3T3 cells) (mouse (endogenous in NIH3T3)) (UniProt P16092); experiment: co-IP; endogenous proteins in NIH3T3 cells; details in Additional file 1: Figure S2

binding [1]: binds
binding [2]: binds
binding [3]: binds
Molecule: recombinant galectin-3 (His-Tag fusion) (from UniProt P17931 1-250)

binding [4]: no binding
Molecule: Hsp60 (from UniProt P10809 27-573)

binding [4]: binds
Molecule: RSK1 (Ribosomal S6-kinase) (from UniProt Q15418 1-735) (enzyme)

binding [1]: binds
binding [2]: binds
binding [3]: binds
Molecule: recombinant galectin-1 (His-Tag fusion) (from UniProt P09382 1-135)

binding [4]: binds
binding [5]: binds
Molecule: endogenously expressed galectin-1 (U2OS-SBP-R1 cells) (from UniProt P09382 1-135)

binding [6]: binds
Molecule: FGFR1 (non-tagged, U2OS-R1 cells) (from UniProt P11362 22-822) (receptor)

binding [7]: binds
Molecule: endogenous galectin-1 (NIH3T3 cells) (from UniProt P16045 1-135)

binding [7]: binds
Molecule: endogenous galectin-3 (NIH3T3 cells) (from UniProt P16110 1-264)

binding [4]: binds
B1: EGF-like repeat and discoidin I-like domain-containing protein 3 (protein, UniProt O43854 24-480)
chain: DICDPNPCENGGICLPGLADGSFSCECPDGFTDPNCSSVVEVASDEEEPTSAGPCTPNPCHNGGTCEISEAYRGDTFIGYVCKCPRGFNGIHCQHNINECEVEPCKNGGICTDLVANYSCECPGEFMGRNCQYKCSGPLGIEGGIISNQQITASSTHRALFGLQKWYPYYARLNKKGLINAWTAAENDRWPWIQINLQRKMRVTGVITQGAKRIGSPEYIKSYKIAYSNDGKTWAMYKVKGTNEDMVFRGNIDNNTPYANSFTPPIKAQYVRLYPQVCRRHCTLRMELLGCELSGCSEPLGMKSGHIQDYQITASSIFRTLNMDMFTWEPRKARLDKQGKVNAWTSGHNDQSQWLQVDLLVPTKVTGIITQGAKDFGHVQFVGSYKLAYSNDGEHWTVYQDEKQRKDKVFQGNFDNDTHRKNVIDPPIYARHIRILPWSWYGRITLRSELLGCTEEE
